Measured values as given in US20060110333A1 (priority 2002, published 2006).

Assay: Plasma morphine concentration after single administration (LC-MS/MS) and pharmacokinetic parameters
Details: rhesus monkey; for Plasma morphine concentration (in terms of morphine hydrochloride) / concentration at 60 min: Morphine HCl 2 mg; for concentration at 60 min: Plasma morphine concentration (in terms of morphine hydrochloride)

SMILES: CN1CC[C@]23c4c5ccc(O)c4O[C@H]2[C@@H](O)C=C[C@H]3[C@H]1C5.Cl [Comparative Example 1, morphine hydrochloride]
- Plasma morphine concentration (in terms of morphine hydrochloride) (0 min, Animal 1, oral): — (“-” indicates that the concentration was under the detection limit (4.3 ng).)
- Plasma morphine concentration (in terms of morphine hydrochloride) (0 min, Animal 2, oral): — (“-” indicates that the concentration was under the detection limit (4.3 ng).)
- Plasma morphine concentration (in terms of morphine hydrochloride) (0 min, Animal 3, oral): — (“-” indicates that the concentration was under the detection limit (4.3 ng).)
- Plasma morphine concentration (in terms of morphine hydrochloride) (5 min, Animal 1, oral): — (“-” indicates that the concentration was under the detection limit (4.3 ng).)
- Plasma morphine concentration (in terms of morphine hydrochloride) (5 min, Animal 2, oral): — (“-” indicates that the concentration was under the detection limit (4.3 ng).)
- Plasma morphine concentration (in terms of morphine hydrochloride) (5 min, Animal 3, oral): — (“-” indicates that the concentration was under the detection limit (4.3 ng).)
- Plasma morphine concentration (in terms of morphine hydrochloride) (10 min, Animal 1, oral): — (“-” indicates that the concentration was under the detection limit (4.3 ng).)
- Plasma morphine concentration (in terms of morphine hydrochloride) (10 min, Animal 2, oral): — (“-” indicates that the concentration was under the detection limit (4.3 ng).)
- Plasma morphine concentration (in terms of morphine hydrochloride) (10 min, Animal 3, oral): — (“-” indicates that the concentration was under the detection limit (4.3 ng).)
- Plasma morphine concentration (in terms of morphine hydrochloride) (20 min, Animal 1, oral): — (“-” indicates that the concentration was under the detection limit (4.3 ng).)
- Plasma morphine concentration (in terms of morphine hydrochloride) (20 min, Animal 2, oral): — (“-” indicates that the concentration was under the detection limit (4.3 ng).)
- Plasma morphine concentration (in terms of morphine hydrochloride) (20 min, Animal 3, oral): — (“-” indicates that the concentration was under the detection limit (4.3 ng).)
- Plasma morphine concentration (in terms of morphine hydrochloride) (30 min, Animal 1, oral): — (“-” indicates that the concentration was under the detection limit (4.3 ng).)
- Plasma morphine concentration (in terms of morphine hydrochloride) (30 min, Animal 2, oral): — (“-” indicates that the concentration was under the detection limit (4.3 ng).)
- Plasma morphine concentration (in terms of morphine hydrochloride) (30 min, Animal 3, oral): — (“-” indicates that the concentration was under the detection limit (4.3 ng).)
- Plasma morphine concentration (in terms of morphine hydrochloride) (60 min, Animal 2, oral): — (“-” indicates that the concentration was under the detection limit (4.3 ng).)
- Plasma morphine concentration (in terms of morphine hydrochloride) (120 min, Animal 1, oral): — (“-” indicates that the concentration was under the detection limit (4.3 ng).)
- Plasma morphine concentration (in terms of morphine hydrochloride) (120 min, Animal 2, oral): — (“-” indicates that the concentration was under the detection limit (4.3 ng).)
- Plasma morphine concentration (in terms of morphine hydrochloride) (120 min, Animal 3, oral): — (“-” indicates that the concentration was under the detection limit (4.3 ng).)
- Plasma morphine concentration (in terms of morphine hydrochloride) (240 min, Animal 1, oral): — (“-” indicates that the concentration was under the detection limit (4.3 ng).)
- Plasma morphine concentration (in terms of morphine hydrochloride) (240 min, Animal 2, oral): — (“-” indicates that the concentration was under the detection limit (4.3 ng).)
- Plasma morphine concentration (in terms of morphine hydrochloride) (240 min, Animal 3, oral): — (“-” indicates that the concentration was under the detection limit (4.3 ng).)
- Cmax (male, plasma, po, 2 mg): 5.3 ± 5.5 ng/mL
- concentration at 60 min (male, plasma, po, 2 mg, 60 min, Animal 1, oral): 5 ng/mL
- concentration at 60 min (male, plasma, po, 2 mg, 60 min, Animal 3, oral): 11 ng/mL
